Binding data for three molecules are collected here from article PMC7177724.

Protein sequences, listed by entry. Tags and fused reporters are not part of them.
UniProt P26196: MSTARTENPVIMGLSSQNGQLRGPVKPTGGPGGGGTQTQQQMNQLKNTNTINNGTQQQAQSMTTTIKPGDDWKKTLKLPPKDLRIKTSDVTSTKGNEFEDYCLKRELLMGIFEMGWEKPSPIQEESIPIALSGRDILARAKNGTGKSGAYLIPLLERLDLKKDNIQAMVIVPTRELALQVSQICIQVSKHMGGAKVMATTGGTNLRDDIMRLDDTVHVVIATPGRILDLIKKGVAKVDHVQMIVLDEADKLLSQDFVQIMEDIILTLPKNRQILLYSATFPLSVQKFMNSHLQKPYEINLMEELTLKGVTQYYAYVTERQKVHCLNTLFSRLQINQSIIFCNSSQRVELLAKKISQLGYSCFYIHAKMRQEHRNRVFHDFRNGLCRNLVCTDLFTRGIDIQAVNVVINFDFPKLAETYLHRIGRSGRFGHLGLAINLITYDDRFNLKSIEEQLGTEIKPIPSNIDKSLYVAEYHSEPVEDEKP
UniProt Q99700: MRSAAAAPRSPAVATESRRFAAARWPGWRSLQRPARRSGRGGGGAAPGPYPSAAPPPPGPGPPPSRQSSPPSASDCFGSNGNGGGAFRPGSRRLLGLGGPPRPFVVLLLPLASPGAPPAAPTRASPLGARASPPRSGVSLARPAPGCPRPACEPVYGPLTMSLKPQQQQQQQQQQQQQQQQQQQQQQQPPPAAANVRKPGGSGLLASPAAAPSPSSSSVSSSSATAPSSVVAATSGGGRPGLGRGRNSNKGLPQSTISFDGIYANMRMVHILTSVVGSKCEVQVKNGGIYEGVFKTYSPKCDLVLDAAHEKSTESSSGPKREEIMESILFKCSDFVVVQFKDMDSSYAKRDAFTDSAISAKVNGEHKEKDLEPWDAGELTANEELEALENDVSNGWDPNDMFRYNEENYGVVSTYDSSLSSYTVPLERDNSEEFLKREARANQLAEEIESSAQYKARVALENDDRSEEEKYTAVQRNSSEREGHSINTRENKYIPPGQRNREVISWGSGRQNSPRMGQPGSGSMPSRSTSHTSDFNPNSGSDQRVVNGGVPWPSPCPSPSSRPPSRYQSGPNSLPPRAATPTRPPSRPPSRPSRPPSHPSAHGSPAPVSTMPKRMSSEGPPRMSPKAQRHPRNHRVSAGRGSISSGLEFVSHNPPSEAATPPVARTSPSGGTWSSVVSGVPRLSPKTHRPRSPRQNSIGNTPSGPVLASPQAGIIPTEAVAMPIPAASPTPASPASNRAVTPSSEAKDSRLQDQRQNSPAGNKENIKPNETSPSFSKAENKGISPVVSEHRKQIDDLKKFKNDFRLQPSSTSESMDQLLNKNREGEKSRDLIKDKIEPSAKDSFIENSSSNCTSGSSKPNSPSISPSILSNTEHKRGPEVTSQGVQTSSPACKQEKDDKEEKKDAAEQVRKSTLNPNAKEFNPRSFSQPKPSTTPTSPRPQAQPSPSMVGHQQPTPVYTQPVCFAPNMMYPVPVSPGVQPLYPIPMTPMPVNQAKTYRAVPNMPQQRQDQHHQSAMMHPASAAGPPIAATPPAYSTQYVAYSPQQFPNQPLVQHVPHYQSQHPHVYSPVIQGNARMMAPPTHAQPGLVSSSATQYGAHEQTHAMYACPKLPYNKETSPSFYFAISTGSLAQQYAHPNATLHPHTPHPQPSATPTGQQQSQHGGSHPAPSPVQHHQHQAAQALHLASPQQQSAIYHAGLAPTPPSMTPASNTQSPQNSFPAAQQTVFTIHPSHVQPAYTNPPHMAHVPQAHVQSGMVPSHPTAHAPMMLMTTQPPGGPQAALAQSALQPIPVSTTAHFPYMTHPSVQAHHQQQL
UniProt P67809: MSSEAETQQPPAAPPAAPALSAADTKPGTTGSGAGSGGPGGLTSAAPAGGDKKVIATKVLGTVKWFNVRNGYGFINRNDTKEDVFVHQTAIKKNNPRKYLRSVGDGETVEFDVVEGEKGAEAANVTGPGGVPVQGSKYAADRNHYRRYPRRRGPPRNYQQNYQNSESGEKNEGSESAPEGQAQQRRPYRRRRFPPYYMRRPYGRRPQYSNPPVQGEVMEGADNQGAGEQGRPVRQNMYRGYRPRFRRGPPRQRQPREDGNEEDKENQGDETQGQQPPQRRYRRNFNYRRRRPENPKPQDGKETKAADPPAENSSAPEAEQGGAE

No constants are given. Whether binding was seen depends on the method and setting. Binding seen in cells or lysates may run through a third protein. A yes stands for co-enrichment or nearness to the bait. Other partners may have been found.

Test [1] deals with DDX6 helicase (human (endogenous in hASCs)) (UniProt P26196). The experiment in a line: affinity purification with mass spectrometry; endogenous DDX6 immunoprecipitated with anti-DDX6 (MBL PD009) and protein A Dynabeads after precleaning, TRIzol extraction; hASCs not induced or induced to adipogenesis or osteogenesis for 24 h; lysis buffer with 1% NP-40 and RNase inhibitor; washes up to 500 mM NaCl and 2 M urea; proteins found on precleaning beads removed; two donors, two technical replicates.

For test [2] the target is unchanged. Kind of test: affinity purification with mass spectrometry; initial test of the protocol: endogenous DDX6 immunoprecipitated from hASC extract with anti-DDX6 (MBL PD009) and protein A Dynabeads; variations with or without precleaning, extraction with denaturing buffer or TRIzol; lysis buffer with RNase inhibitor; compared with input and flow-through.

In the case of ATXN2 (from UniProt Q99700 1-1313), the binding entry in test [1] and in test [2] was “binds” throughout. Regarding YBX1 (from UniProt P67809 1-324), the binding entry in test [1] and in test [2] was “binds” each time.

B1: NUFIP2 (protein, UniProt Q7Z417 1-695)
chain: MEEKPGQPQPQHHHSHHHPHHHPQQQQQQPHHHHHYYFYNHSHNHHHHHHHQQPHQYLQHGAEGSPKAQPKPLKHEQKHTLQQHQETPKKKTGYGELNGNAGEREISLKNLSSDEATNPISRVLNGNQQVVDTSLKQTVKANTFGKAGIKTKNFIQKNSMDKKNGKSYENKSGENQSVDKSDTIPIPNGVVTNNSGYITNGYMGKGADNDGSGSESGYTTPKKRKARRNSAKGCENLNIVQDKIMQQETSVPTLKQGLETFKPDYSEQKGNRVDGSKPIWKYETGPGGTSRGKPAVGDMLRKSSDSKPGVSSKKFDDRPKGKHASAVASKEDSWTLFKPPPVFPVDNSSAKIVPKISYASKVKENLNKTIQNSSVSPTSSSSSSSSTGETQTQSSSRLSQVPMSALKSVTSANFSNGPVLAGTDGNVYPPGGQPLLTTAANTLTPISSGTDSVLQDMSLTSAAVEQIKTSLFIYPSNMQTMLLSTAQVDLPSQTDQQNLGDIFQNQWGLSFINEPSAGPETVTGKSSEHKVMEVTFQGEYPATLVSQGAEIIPSGTEHPVFPKAYELEKRTSPQVLGSILKSGTTSESGALSLEPSHIGDLQKADTSSQGALVFLSKDYEIESQNPLASPTNTLLGSAKEQRYQRGLERNDSWGSFDLRAAIVYHTKEMESIWNLQKQDPKRIITYNEAMDSPDQ
On to B1, for which the binding result in test [1] is “binds”.
